Assay results published in paper PMC9544816.
Results are given in words; binding and its absence hold for the method and conditions named. Binding seen in cells or lysates may run through a third protein. Some results given as binding are weak or reduced against the parent protein; the word gives no strength.

Sequences of proteins named here, by UniProt entry; tags and fusion partners are left off. Residues count along the entry.
UniProt Q9QUK6, residues 26-835: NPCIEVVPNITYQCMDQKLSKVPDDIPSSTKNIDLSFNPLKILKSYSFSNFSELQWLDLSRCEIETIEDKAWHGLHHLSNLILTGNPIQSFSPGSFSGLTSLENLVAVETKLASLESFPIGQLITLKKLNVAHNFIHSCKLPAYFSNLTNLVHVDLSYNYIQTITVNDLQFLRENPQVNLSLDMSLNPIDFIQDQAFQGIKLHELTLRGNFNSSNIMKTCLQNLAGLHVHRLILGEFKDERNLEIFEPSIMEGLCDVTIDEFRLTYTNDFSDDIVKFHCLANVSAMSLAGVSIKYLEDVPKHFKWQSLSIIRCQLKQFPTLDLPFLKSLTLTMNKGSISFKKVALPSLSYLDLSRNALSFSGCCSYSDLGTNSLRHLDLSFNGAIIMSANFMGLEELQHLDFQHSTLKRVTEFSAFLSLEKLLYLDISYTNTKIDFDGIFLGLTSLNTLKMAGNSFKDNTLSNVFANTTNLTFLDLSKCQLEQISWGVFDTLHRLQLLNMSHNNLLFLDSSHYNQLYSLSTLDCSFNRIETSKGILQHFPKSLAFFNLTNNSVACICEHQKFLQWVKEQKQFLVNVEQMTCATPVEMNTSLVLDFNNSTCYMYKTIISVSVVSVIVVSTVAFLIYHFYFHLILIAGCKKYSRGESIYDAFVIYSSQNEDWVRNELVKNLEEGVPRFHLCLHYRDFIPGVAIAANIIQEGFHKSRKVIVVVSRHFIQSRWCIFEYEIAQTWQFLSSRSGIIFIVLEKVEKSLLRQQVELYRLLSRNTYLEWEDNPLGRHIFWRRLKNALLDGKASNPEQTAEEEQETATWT
UniProt P25911: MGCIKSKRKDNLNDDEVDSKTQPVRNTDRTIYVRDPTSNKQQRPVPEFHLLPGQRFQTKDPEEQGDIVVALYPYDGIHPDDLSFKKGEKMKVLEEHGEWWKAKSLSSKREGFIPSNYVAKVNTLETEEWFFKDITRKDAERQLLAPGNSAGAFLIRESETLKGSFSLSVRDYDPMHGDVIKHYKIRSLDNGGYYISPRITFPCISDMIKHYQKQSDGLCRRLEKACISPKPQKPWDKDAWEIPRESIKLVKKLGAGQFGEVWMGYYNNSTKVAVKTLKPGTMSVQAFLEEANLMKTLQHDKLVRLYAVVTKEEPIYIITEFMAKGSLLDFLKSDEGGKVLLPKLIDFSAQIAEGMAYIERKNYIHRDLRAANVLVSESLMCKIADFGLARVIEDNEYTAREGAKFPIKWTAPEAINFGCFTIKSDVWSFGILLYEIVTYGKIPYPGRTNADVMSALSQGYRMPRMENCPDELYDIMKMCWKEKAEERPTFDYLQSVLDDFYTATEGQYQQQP

Tests used:
[1] = biological target: Scimp (full-length Scimp; Slp65/76 and CSK-interacting membrane protein) (mouse (endogenous in BMMs)) (UniProt Q3UU41); assay: co-IP; rabbit anti-Scimp antibody on protein G plus agarose, 1 h at 4°C; lysates of CSF-1-BMMs from WT and Scimp TV1 mice primed overnight with GM-CSF (10 ng/mL) and stimulated with LPS (10 ng/mL) over a time course; lysis buffer 20 mM TRIS pH 7.4, 150 nM NaCl (so in the source), 1% NP40, 5% glycerol; western blot for TLR4 and Lyn
[2] = biological target: Scimp translational variant 1 (Scimp TV1) (mouse (endogenous in BMMs)) (UniProt Q3UU41); assay: as above

| Substance | binding [1] | binding [2] |
| --- | --- | --- |
| TLR4 (from UniProt Q9QUK6 26-835) (receptor) | binds | – |
| Lyn (from UniProt P25911 1-512) (enzyme) | binds | binds |
